# According to PubChem BioAssay AID2685 (National Center for Advancing Translational Sciences (NCATS), 2010):
# This is one part of the list. These are further read-outs of the screen, such as a control signal, another cell line or another target. No call is given for them. The list favours compounds with an active or inconclusive main result. Potencies come from curve fits of mixed quality, noted in brackets.
# Test: qHTS Assay for Lipid Storage Modulators in Drosophila S3 Cells;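 as to cell number change: cells counted by Cell Tracker Red CMTPX staining in the red channel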
# Settings: BODIPY lipid droplet fluorescence, 18-24 h; for cell number change: measured here: cell count max response, cells fed with added oleic acid
# In short: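 Drosophila S3 cells loaded with oleic acid (400 uM, as added) and compounds at several concentrations; lipid droplets imaged by 488-nm laser-scanning cytometry, 500–530 nm intensity and object ratio to cell channel. Percent activity normalized to 20 uM Triacsin C.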
# [1] = measured here: lipid fluorescence (Fed channel) AC50, cells fed with added oleic acid
# [2] = measured here: cell number channel AC50, cells fed with added oleic acid
SMILES,cell number change [%],AC50 [1],AC50 [2]
CCOC(=O)[C@@H]1[C@H]2COc3ccc(Br)cc3[C@@H]2N2C(=O)N(c3ccccc3)C(=O)[C@]12C,3.29,"29.1 µM [rising, single point]",–
COc1ccc(CNC(=O)CCc2nnc3ccc(N4CCC5(CC4)OCCO5)nn23)cc1,-18.4,"6.51 µM [falling, single point]",–
CC1=C(c2ccc(Cl)cc2)[N+](=O)C(C)(C)N1[O-],-15.1,"0.00411 µM [falling, full curve, poor fit]",–
CC1CCN(C(=O)c2cc(-c3ccccc3O)on2)CC1,-7.41,"0.00461 µM [falling, full curve, poor fit]",–
C=CCOc1ccccc1/C=N/n1nnnc1N,-3.7,"29.1 µM [falling, single point]",–
CCN(CC)C(=O)C1CCCN(Cc2sccc2C)C1 (stereo not given),9.61,–,–
CCN(CC)S(=O)(=O)c1ccc(C(=O)Nc2cc(C)cc(C)c2)cc1,0.929,–,–
CCCN(C(=O)CSc1nnc(-c2ccoc2C)n1N)C1CCS(=O)(=O)C1 (stereo not given),-72.6,"4.11 µM [falling, full curve]","4.11 µM [falling, full curve]"
CCOc1ccc(-c2nc(N)nc(C)c2-c2ccc(OC)c(OC)c2)c(O)c1,2.01,"16.4 µM [rising, single point]",–
Cc1ccc(NC(=O)CCNS(=O)(=O)c2ccc3c(c2)oc(=O)n3C)cc1C,31.6,–,"14.6 µM [rising, single point]"
COc1ccc(/C=C2\SC(=O)N(CCNC(=O)C3CCN(S(=O)(=O)c4cccs4)CC3)C2=O)cc1,-5.48,"23.1 µM [falling, single point]",–
Cc1cccc(NC(=S)NCC(C)CSc2ccc(Cl)cc2)c1 (stereo not given),–,"6.51 µM [falling, partial curve]","0.103 µM [falling, partial curve, poor fit]"
Cn1c(=O)c2c(SCC(=O)Nc3cccc(F)c3)nc(-c3ccco3)nc2n(C)c1=O,-17.6,"6.51 µM [falling, full curve, poor fit]",–
COc1ccc(N2CCN(C(c3cccs3)C(C)NC(=O)C(=O)N3CCCCC3)CC2)cc1 (stereo not given),4.78,"16.4 µM [falling, single point]",–
Cc1cccc(NC(=O)CSc2nnc(CNC(=O)c3cccs3)o2)c1C,-14.9,–,–
COc1cc(OC)c(-n2c(C)cc(C=O)c2C)cc1Cl,-4.42,"1.3 µM [falling, partial curve]","0.731 µM [falling, full curve]"
O=c1c(Cc2ccc(Cl)cc2Cl)c(O)ccn1CC(F)(F)F,-52.1,"20.6 µM [falling, single point]","18.4 µM [falling, single point]"
CC(C)CN(C(=O)CSc1ncnc2ccccc12)C1CCS(=O)(=O)C1 (stereo not given),-1.16,"6.51 µM [rising, single point]",–
CCC(C(=O)Nc1ccccc1)c1ccccc1 (stereo not given),79.5,"23.1 µM [rising, partial curve, poor fit]","23.1 µM [rising, single point]"
CN(C)S(=O)(=O)c1ccc(NCC2COc3ccccc3O2)c([N+](=O)[O-])c1 (stereo not given),-25.9,"29.1 µM [falling, single point]",–

SMILES,cell number change [%],AC50 [1],AC50 [2]
O=C(N/N=C/C1CCCCC1)c1ccccn1,-22.4,"6.51 µM [rising, single point]",–
O=C(Nc1ccn(Cc2ccccc2)n1)c1ccc(F)cc1,-16.6,"18.4 µM [falling, single point]",–
O=C(NCc1ccncc1)C(=O)NCC(c1ccco1)N1CCN(c2ccc(F)cc2)CC1 (stereo not given),24,–,"1.84 µM [rising, full curve, poor fit]"
COc1ccc(CN(C)CC(O)COC(c2ccc(OC)cc2)c2ccc(OC)cc2)cc1 (stereo not given),-3.95,"0.447 µM [falling, single point]",–
c1ccc2c(-c3nc(C4CCCCC4)no3)cc(-c3ccncc3)nc2c1,–,"1.84 µM [rising, partial curve]","1.46 µM [rising, partial curve]"
CN(CC(=O)Nc1cccc(F)c1)CC(=O)Nc1cc(S(=O)(=O)N2CCOCC2)ccc1Cl,-7.98,"6.51 µM [falling, single point]",–
O=C(CC(C(=O)O)c1c(F)cccc1Cl)c1ccc(Cl)cc1 (stereo not given),31.5,–,"4.11 µM [rising, full curve, poor fit]"
COc1ccc(C(C#N)N2CCC(c3ccccc3)=N2)cc1 (stereo not given),31.2,–,"5.17 µM [rising, single point]"
CCOc1ccccc1/C=N/Nc1nc2ccccc2o1,-10.3,–,–
COc1ccc(OC)c(NC(=O)Cn2cc(C#N)c3ccccc32)c1,0.0661,"6.51 µM [rising, single point]",–
Cc1ccc(S(=O)(=O)Nc2ccccc2C(=O)Nc2nc(-c3ccc(F)cc3)cs2)cc1,-39.4,–,"18.4 µM [falling, single point]"
O=C(O)CCCCCn1c(SCC(=O)Nc2ccc(F)cc2)nc2ccsc2c1=O,3.19,–,"3.66 µM [falling, single point]"
COc1ccc(C(=O)C2CCCN(Cc3ccc4nonc4c3)C2)cc1OC (stereo not given),24.2,"14.6 µM [rising, partial curve, poor fit]",–
CC(C)C[C@H](NC(=O)c1[nH]cnc1C(=O)N[C@H](C)c1ccccc1)C(=O)OCc1ccccc1,-0.742,"0.00411 µM [falling, full curve, poor fit]",–
O=C(Nc1ccc(N2CCN(c3ccccc3)CC2)c(F)c1)C1CC1,-20.5,"0.82 µM [falling, single point]","6.51 µM [rising, single point]"
CCN1C(=O)/C(=C\N2CCN(c3ccc(F)cc3)CC2)SC1=S,–,"1.16 µM [rising, full curve]","1.3 µM [rising, partial curve]"
Cc1ccc(SCC(=O)OCC(=O)N(CC(C)C)c2c(N)n(Cc3ccccc3)c(=O)[nH]c2=O)c(C)c1,-50.6,"18.4 µM [falling, single point]","29.1 µM [falling, single point]"
O=C(COc1ccc(S(=O)(=O)N2CCOCC2)cc1)NCc1ccccc1,-14.4,–,–
Nc1ccccc1SC1CC(=O)N(c2ccc3c(c2)OCCO3)C1=O (stereo not given),15,"6.51 µM [falling, single point]",–
Cc1ccc(C(=O)NCCONC(=O)c2ccc(C)cc2)cc1,-13.1,"5.62 µM [falling, single point]",–

SMILES,cell number change [%],AC50 [1],AC50 [2]
Cn1c(NCc2ccccc2)cc(=O)n(C)c1=O,3.06,"0.326 µM [falling, full curve]",–
OCCN(Cc1ccccc1)Cc1ccc(F)c(F)c1,-7.08,"1.84 µM [falling, full curve]",–
CCOC(=O)c1cc(C(=O)NCc2ccc(Cl)cc2Cl)nn1C,–,"11.6 µM [rising, partial curve]",–
Cc1nn(-c2ccccc2)c(N)c1N=Nc1cccc(S(=O)(=O)N2CCOCC2)c1,-29.2,"29.1 µM [falling, single point]",–
CCOc1ccc(NC(=O)c2ccc(NC(=O)COC(=O)Cc3ccc(OC)cc3)cc2)cc1,6.37,"23.1 µM [rising, single point]",–
CS(=O)(=O)c1cccc(C(=O)Nc2cccc(S(=O)(=O)N3CCCC3)c2)c1,3,–,–
COc1cc(C(=O)NC(C)c2ccc(-n3ccnc3)cc2)cc(OC)c1C (stereo not given),15.1,"23.1 µM [rising, single point]","1.84 µM [rising, partial curve, poor fit]"
Cc1coc(NC(=O)CSc2nc(-c3ccncc3)cc(C(F)(F)F)c2C#N)n1,–,"0.231 µM [rising, full curve]","0.82 µM [rising, partial curve]"
CCn1c(-c2cccnc2Cl)nc2cc(Cl)c(Cl)cc21,–,"0.366 µM [falling, partial curve, poor fit]",–
CCOC(=O)N1CCC(N2Cc3cccc(C(=O)Nc4ccc(N(CC)CC)cc4C)c3C2=O)CC1,-9.79,"1.84 µM [rising, partial curve, poor fit]",–
O=C(NCCCn1ccnc1)c1ccc(N2CCCCC2)c([N+](=O)[O-])c1,110,–,"23.1 µM [rising, single point]"
CC(C)c1nnc(NC(=O)c2c(O)c3cccc4c3n(c2=O)CCC4)s1,-7.84,"0.731 µM [falling, full curve, poor fit]",–
Cc1csc(SCc2c(C(=O)O)oc3ccccc23)n1,5.39,–,–
OCCNCCCCCOc1ccc(F)cc1,1.16,–,–
CC(=O)Oc1ccc(C23CC4CC(CC(C4)C2)C3)cc1C(=O)O,47.2,"29.1 µM [rising, single point]","29.1 µM [rising, single point]"
Cc1cc(=O)oc2cc(NC(=O)c3cccc(S(C)(=O)=O)c3)ccc12,2.63,–,–
O=S(=O)(c1ccccc1)[C@@]1(c2ccccc2)C[C@@H]2ON=C(c3cccc(Br)c3)[C@@H]2C1,-29.9,–,–
Cc1ccc(NC(=O)C(C)N2C(=O)c3ccccc3C2=O)c(C)c1 (stereo not given),-23.6,–,–
COc1cccc(CN2CC(C(=O)NCCc3ccc(C)s3)CCC2=O)c1 (stereo not given),17,–,"2.31 µM [rising, partial curve, poor fit]"
Cc1noc(C)c1C(=O)OCC(=O)c1c[nH]c2ccccc12,-2.38,"0.58 µM [rising, full curve, poor fit]",–

# For reference, some entries already given.
SMILES,cell number change [%],AC50 [1],AC50 [2]
OCCN(Cc1ccccc1)Cc1ccc(F)c(F)c1,-7.08,"1.84 µM [falling, full curve]",–
CCOC(=O)c1cc(C(=O)NCc2ccc(Cl)cc2Cl)nn1C,–,"11.6 µM [rising, partial curve]",–
Cc1nn(-c2ccccc2)c(N)c1N=Nc1cccc(S(=O)(=O)N2CCOCC2)c1,-29.2,"29.1 µM [falling, single point]",–
CCOc1ccc(NC(=O)c2ccc(NC(=O)COC(=O)Cc3ccc(OC)cc3)cc2)cc1,6.37,"23.1 µM [rising, single point]",–
CS(=O)(=O)c1cccc(C(=O)Nc2cccc(S(=O)(=O)N3CCCC3)c2)c1,3,–,–
COc1cc(C(=O)NC(C)c2ccc(-n3ccnc3)cc2)cc(OC)c1C (stereo not given),15.1,"23.1 µM [rising, single point]","1.84 µM [rising, partial curve, poor fit]"
Cc1coc(NC(=O)CSc2nc(-c3ccncc3)cc(C(F)(F)F)c2C#N)n1,–,"0.231 µM [rising, full curve]","0.82 µM [rising, partial curve]"
CCn1c(-c2cccnc2Cl)nc2cc(Cl)c(Cl)cc21,–,"0.366 µM [falling, partial curve, poor fit]",–
CCOC(=O)N1CCC(N2Cc3cccc(C(=O)Nc4ccc(N(CC)CC)cc4C)c3C2=O)CC1,-9.79,"1.84 µM [rising, partial curve, poor fit]",–
O=C(NCCCn1ccnc1)c1ccc(N2CCCCC2)c([N+](=O)[O-])c1,110,–,"23.1 µM [rising, single point]"
CC(C)c1nnc(NC(=O)c2c(O)c3cccc4c3n(c2=O)CCC4)s1,-7.84,"0.731 µM [falling, full curve, poor fit]",–
Cc1csc(SCc2c(C(=O)O)oc3ccccc23)n1,5.39,–,–
OCCNCCCCCOc1ccc(F)cc1,1.16,–,–
CC(=O)Oc1ccc(C23CC4CC(CC(C4)C2)C3)cc1C(=O)O,47.2,"29.1 µM [rising, single point]","29.1 µM [rising, single point]"
Cc1cc(=O)oc2cc(NC(=O)c3cccc(S(C)(=O)=O)c3)ccc12,2.63,–,–
O=S(=O)(c1ccccc1)[C@@]1(c2ccccc2)C[C@@H]2ON=C(c3cccc(Br)c3)[C@@H]2C1,-29.9,–,–
